No constants are given. Whether binding was seen depends on the method and setting. In cells and extracts the contact can be indirect. Some entries that bind do so weakly or less than the wild type.

Protein sequences, listed by entry. Tags and fused reporters are not part of them.
UniProt P09874: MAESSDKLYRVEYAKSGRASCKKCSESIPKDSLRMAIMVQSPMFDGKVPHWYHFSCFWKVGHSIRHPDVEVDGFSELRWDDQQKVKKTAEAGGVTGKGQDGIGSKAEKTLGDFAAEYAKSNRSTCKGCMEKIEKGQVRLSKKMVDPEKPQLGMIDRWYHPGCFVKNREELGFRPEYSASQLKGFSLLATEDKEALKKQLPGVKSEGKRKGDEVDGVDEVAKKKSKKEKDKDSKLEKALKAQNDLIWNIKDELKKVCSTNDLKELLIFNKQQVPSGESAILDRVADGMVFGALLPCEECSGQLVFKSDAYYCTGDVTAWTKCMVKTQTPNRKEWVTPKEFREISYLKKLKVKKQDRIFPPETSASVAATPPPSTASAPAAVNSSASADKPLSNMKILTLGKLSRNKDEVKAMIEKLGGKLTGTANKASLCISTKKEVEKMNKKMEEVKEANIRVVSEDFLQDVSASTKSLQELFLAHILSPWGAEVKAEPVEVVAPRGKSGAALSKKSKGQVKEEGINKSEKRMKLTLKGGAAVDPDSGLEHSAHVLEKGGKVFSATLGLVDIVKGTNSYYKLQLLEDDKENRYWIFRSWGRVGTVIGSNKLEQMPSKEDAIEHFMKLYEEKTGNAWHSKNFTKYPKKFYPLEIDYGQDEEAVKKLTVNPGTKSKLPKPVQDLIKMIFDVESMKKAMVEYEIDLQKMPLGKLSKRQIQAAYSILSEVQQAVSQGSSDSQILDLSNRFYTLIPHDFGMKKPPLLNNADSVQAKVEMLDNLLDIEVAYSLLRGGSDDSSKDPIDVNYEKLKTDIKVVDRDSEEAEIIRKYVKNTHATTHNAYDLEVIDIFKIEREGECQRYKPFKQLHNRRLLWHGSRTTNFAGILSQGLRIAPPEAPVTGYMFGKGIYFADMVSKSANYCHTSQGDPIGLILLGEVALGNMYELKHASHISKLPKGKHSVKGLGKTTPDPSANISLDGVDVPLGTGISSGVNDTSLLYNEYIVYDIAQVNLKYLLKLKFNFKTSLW

The target of this assay is MBP-PARP1 fusion protein (UniProt P09874). The assay can be described thus: pull-down; MBP-PARP1 fusion protein on beads (amylose resin), incubated with lysates of HEK293T cells expressing SFB-NUDT16 (WT or DDEEE5A); cells untreated, IR 20 Gy, or PARPi (20 μM olaparib, 3 h) before IR; only the target purified.

B1: SFB-NUDT16 DDEEE5A mutant (D63AD66AE118AE119AE124A) (protein, UniProt Q96DE0 1-195)
chain: MAGARRLELGEALALGSGWRHACHALLYAPDPGMLFGRIPLRYAILMQMRFDGRLGFPGGFVATQARSLEDGLNRELREELGEAAAAFRVERTDYRSSHVGSGPRVVAHFYAKRLTLAALLAVAAGATRAKDHGLEVLGLVRVPLYTLRDGVGGLPTFLENSFIGSAREQLLEALQDLGLLQSGSISGLKIPAHH
Take B1: the binding entry is on record as “binds”.

The record behind these values is article PMC11039996.
